Binding data for 1 molecule are collected here from patent EP0969854B1, “INHIBITION OF SIGNAL TRANSDUCTION BY THE BINDING OF NON-PHOSPHORYLATED COMPOSITIONS” (GEORGETOWN UNIVERSITY, priority 1996, dated 2006).

Amino acid sequences for entries named in this document (tags omitted).
UniProt P62993: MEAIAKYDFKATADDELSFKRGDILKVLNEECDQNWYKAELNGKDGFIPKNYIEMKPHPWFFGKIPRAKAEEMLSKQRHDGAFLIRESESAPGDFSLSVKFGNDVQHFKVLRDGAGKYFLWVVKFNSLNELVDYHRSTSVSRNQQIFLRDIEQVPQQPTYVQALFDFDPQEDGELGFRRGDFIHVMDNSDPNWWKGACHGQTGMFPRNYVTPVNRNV

These are yes or no findings as the source states them, for the method shown. Some binding calls cover weakened binding; strength is not graded here.

In the assay the target is intact GST-Grb2 fusion protein (UniProt P62993). The assay is described as follows: SPR competition, SHC phosphopeptide on the chip (Figure 6).

Turning to DDPSYVNVQ [SHC control peptide (…)], the binding result is on record as “binds”.
